# Measured values: paper PMC7819943, “Rice protein-binding microarrays: a tool to detect cis-acting elements near promoter regions in rice”
# The list shows a part of the results.
# Molecular target: T1, OsSMF1 (Oryza sativa, UniProt Q6ZLB0 1-436)
# T1 sequence: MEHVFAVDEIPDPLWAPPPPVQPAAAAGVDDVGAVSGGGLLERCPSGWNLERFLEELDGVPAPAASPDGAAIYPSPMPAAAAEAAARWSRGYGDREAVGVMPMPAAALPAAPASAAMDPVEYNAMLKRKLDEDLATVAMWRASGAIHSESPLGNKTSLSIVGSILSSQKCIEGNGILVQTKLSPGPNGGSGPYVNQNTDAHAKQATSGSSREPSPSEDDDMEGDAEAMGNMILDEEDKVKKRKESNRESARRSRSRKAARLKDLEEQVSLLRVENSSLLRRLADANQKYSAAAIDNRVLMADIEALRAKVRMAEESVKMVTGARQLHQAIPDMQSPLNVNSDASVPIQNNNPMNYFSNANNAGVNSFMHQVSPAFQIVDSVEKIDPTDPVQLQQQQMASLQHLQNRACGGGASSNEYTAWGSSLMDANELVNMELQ
# Assay: protein-binding microarray (RPBM); PBS, 2% BSA, 51.3 ng/ul salmon testes DNA, 50 uM zinc acetate, 200 nM TF, 25 C, 1 h; high values mean tight binding
# Settings: protein: recombinant; tags: N-terminal polyhistidine and DsRed monomer fusion (pET32a); chain copies: 2; label: CyDye5-dUTP incorporated in the synthesized complementary strand; 3' TTTTT single-stranded linker to array surface; dsDNA, one strand shown
# Method in brief: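 The binding signal is fluorescence intensity per feature, in arbitrary units, read on an Axon 4000B scanner. Polyhistidine- and DsRed-tagged transcription factors (N-terminal fusions) from E. coli BL21-CodonPlus were purified on Ni–NTA and applied at 200 nM for 1 h at 25 °C to a double-stranded, BSA-blocked custom Agilent array in buffer with 50 µM zinc acetate.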
row,Sequence,binding signal
1,GAATGGGAAGAGGGAGATGACACGTGGGGCCCACCATATTCGGAGTCACCTAGTGCAG,4040 fluorescence intensity (a.u.)
2,TTCAAGTCCACATGGTGCTGACGTGAAACTGTCACATACACGGAGTCACCTAGTGCAG,7250 fluorescence intensity (a.u.)
3,TCTATGCAGTGTTTACAGCGTCACTTATCTTAATTCTCCCCGGAGTCACCTAGTGCAG,4490 fluorescence intensity (a.u.)
4,CGAGGACGACGTCGTGGTTGTGGTCGTCATGCTTGGGGACCGGAGTCACCTAGTGCAG,7180 fluorescence intensity (a.u.)
5,TCATTCCAGTTACCATGGAGCTGACGCGTGCACACGCACACGGAGTCACCTAGTGCAG,8490 fluorescence intensity (a.u.)
6,TCGAATTGTGGTGAACATTGCATTAATCCTCAAGAGCCTTCGGAGTCACCTAGTGCAG,17600 fluorescence intensity (a.u.)
7,CTGCATTCAGTTTACTCTTCCCTGTCAGCTTCTGAAGACCCGGAGTCACCTAGTGCAG,4470 fluorescence intensity (a.u.)
8,ATTGTTTGTCGTCTTATAGCATTCAATTCGACAAAGAACCCGGAGTCACCTAGTGCAG,24900 fluorescence intensity (a.u.)
9,GAGGGTCATGTCTTGGTCGCGGGCTGATGACTTGGAGCCCCGGAGTCACCTAGTGCAG,6360 fluorescence intensity (a.u.)
10,AAAAGTCCATCTACTGGTGCCGTCACCATCACAGAATACACGGAGTCACCTAGTGCAG,4090 fluorescence intensity (a.u.)
11,TATTACCACGTAGGCGCCACGTGGCGCCACGTCAGCAAAACGGAGTCACCTAGTGCAG,42100 fluorescence intensity (a.u.)
12,ATTACTACTATTCAGTACATTTCGTAATTTACAGCTCATCCGGAGTCACCTAGTGCAG,4510 fluorescence intensity (a.u.)
13,CTCGTCGATGTAGCGCTCCTCCCGTTCCTGGTCTCCAACGCGGAGTCACCTAGTGCAG,3180 fluorescence intensity (a.u.)
14,CAGTTTCGTCTCGCCGGCGTTGTATTTCCACATCAACGTGCGGAGTCACCTAGTGCAG,3470 fluorescence intensity (a.u.)
15,TCACGGCCGCTGAAGCCTCTGACACTCCACTGTAGTGTGTCGGAGTCACCTAGTGCAG,3710 fluorescence intensity (a.u.)
16,GCCACGATGAAGAGAGTCCCAAATCAAATTCTCAACTCTACGGAGTCACCTAGTGCAG,32100 fluorescence intensity (a.u.)
17,CAAAACGTCAAAAGCAGAAATGAATGGAGTGATCGAGTAGCGGAGTCACCTAGTGCAG,3440 fluorescence intensity (a.u.)
18,TGCATATACCCCTTCTCCAGGCATAAGTATTGATCCTTCTCGGAGTCACCTAGTGCAG,3300 fluorescence intensity (a.u.)
19,CGCGTACATCCAACTGAGTTTTCTGCGATGGACGGTGACACGGAGTCACCTAGTGCAG,3920 fluorescence intensity (a.u.)
20,ACGAAACGCAGCAAGTGTCAACTGACTAGTACTTTGAACACGGAGTCACCTAGTGCAG,3810 fluorescence intensity (a.u.)
21,AACTATAACTCCAAAATCTTGTATGATATTATTATATATGCGGAGTCACCTAGTGCAG,3320 fluorescence intensity (a.u.)

# Some of the entries above in another layout:
row | Sequence | binding signal
4 | CGAGGACGACGTCGTGGTTGTGGTCGTCATGCTTGGGGACCGGAGTCACCTAGTGCAG | 7180 fluorescence intensity (a.u.)
5 | TCATTCCAGTTACCATGGAGCTGACGCGTGCACACGCACACGGAGTCACCTAGTGCAG | 8490 fluorescence intensity (a.u.)
6 | TCGAATTGTGGTGAACATTGCATTAATCCTCAAGAGCCTTCGGAGTCACCTAGTGCAG | 17600 fluorescence intensity (a.u.)
7 | CTGCATTCAGTTTACTCTTCCCTGTCAGCTTCTGAAGACCCGGAGTCACCTAGTGCAG | 4470 fluorescence intensity (a.u.)
8 | ATTGTTTGTCGTCTTATAGCATTCAATTCGACAAAGAACCCGGAGTCACCTAGTGCAG | 24900 fluorescence intensity (a.u.)
9 | GAGGGTCATGTCTTGGTCGCGGGCTGATGACTTGGAGCCCCGGAGTCACCTAGTGCAG | 6360 fluorescence intensity (a.u.)
10 | AAAAGTCCATCTACTGGTGCCGTCACCATCACAGAATACACGGAGTCACCTAGTGCAG | 4090 fluorescence intensity (a.u.)
11 | TATTACCACGTAGGCGCCACGTGGCGCCACGTCAGCAAAACGGAGTCACCTAGTGCAG | 42100 fluorescence intensity (a.u.)
12 | ATTACTACTATTCAGTACATTTCGTAATTTACAGCTCATCCGGAGTCACCTAGTGCAG | 4510 fluorescence intensity (a.u.)
13 | CTCGTCGATGTAGCGCTCCTCCCGTTCCTGGTCTCCAACGCGGAGTCACCTAGTGCAG | 3180 fluorescence intensity (a.u.)
14 | CAGTTTCGTCTCGCCGGCGTTGTATTTCCACATCAACGTGCGGAGTCACCTAGTGCAG | 3470 fluorescence intensity (a.u.)
15 | TCACGGCCGCTGAAGCCTCTGACACTCCACTGTAGTGTGTCGGAGTCACCTAGTGCAG | 3710 fluorescence intensity (a.u.)

# Following part

row,Sequence,binding signal
1,CAACTCGCTCCCGGGTTTTGAAACCGCGGGACCGTCGTGGCGGAGTCACCTAGTGCAG,3780 fluorescence intensity (a.u.)
2,TCGATCCGCGCTTTTGTCCACGTCACCAATCCGTGGCAACCGGAGTCACCTAGTGCAG,33100 fluorescence intensity (a.u.)
3,TATGTTTCTAACCTTGCTTTATCTGTCCTATGGGCCCAGTCGGAGTCACCTAGTGCAG,3140 fluorescence intensity (a.u.)
4,GCAGCTGGTGGCGCAACGCCACGAGGCGCACCCCGCTGGCCGGAGTCACCTAGTGCAG,3400 fluorescence intensity (a.u.)
5,GAGGAAATCTTCTTAAGAACTGTGAAATACAACTACATGACGGAGTCACCTAGTGCAG,22500 fluorescence intensity (a.u.)
6,GTCTGAACTGAAGCAACTATCAAAAGGCAATTAGTAGACGCGGAGTCACCTAGTGCAG,20400 fluorescence intensity (a.u.)
7,ATTAGACAAGTGACGTGTGGACCCCAGGTCTATATGTCAGCGGAGTCACCTAGTGCAG,10200 fluorescence intensity (a.u.)
8,CTCCAGCAGCTGCTCGCTCGTCATCACCGCGATGCTGCCGCGGAGTCACCTAGTGCAG,3490 fluorescence intensity (a.u.)
9,ACGATAGTAGAGTCACTGTAGTGTGTAGATTGCATGGTAGCGGAGTCACCTAGTGCAG,3560 fluorescence intensity (a.u.)
10,TCTCCTTCCACTGCCACCGCACAAGCAAGGGCAAAGCTTACGGAGTCACCTAGTGCAG,3780 fluorescence intensity (a.u.)
11,GGCGAGGGCGAACGCCATGACGAGGCAGGGGATGCCGAAGCGGAGTCACCTAGTGCAG,3750 fluorescence intensity (a.u.)
12,AATGCAAGTCAATTCCAAATCCAACCAAAATTCCGCCGAACGGAGTCACCTAGTGCAG,22000 fluorescence intensity (a.u.)
13,GTCCACGCGGCGCGCCGCGGTTGACCCGCGTTGCCTCTCGCGGAGTCACCTAGTGCAG,3280 fluorescence intensity (a.u.)
14,AATGAAAACAAGTGAGAGCAATAATGCCACGTACGTACACCGGAGTCACCTAGTGCAG,9150 fluorescence intensity (a.u.)
15,GTTACGACTTATAACATTCCTTGTCCTGTACTTCTTCTTGCGGAGTCACCTAGTGCAG,3250 fluorescence intensity (a.u.)
16,CGTTTCTCGTCGCGTCACGCTATCACCCTTGACATCATCACGGAGTCACCTAGTGCAG,6710 fluorescence intensity (a.u.)
17,AGAGTACTTTTGGGGTTACAAGTCAACATGAGTCAACACTCGGAGTCACCTAGTGCAG,4180 fluorescence intensity (a.u.)
18,AAATCCTGAACAGTGGAGTTACCACAGGGATGTGCTGTCCCGGAGTCACCTAGTGCAG,3510 fluorescence intensity (a.u.)
19,CATGTGGTGCAGCGAGGTGACTTTGGATTCCTTCAAACGTCGGAGTCACCTAGTGCAG,3170 fluorescence intensity (a.u.)
20,GAATTTCCAAAGTTTAACCACCAGGTCATCATAAAACGAACGGAGTCACCTAGTGCAG,3290 fluorescence intensity (a.u.)
21,TTGACTGAACTGCCATGTGTATGCCACGTAGACCAAAACCCGGAGTCACCTAGTGCAG,11600 fluorescence intensity (a.u.)
